At least one structure is not confirmed: it was looked up by name or label, or the drawing left a doubt.
Experiments:
[1] = Particle size and polydispersity of LNP containing prodrug (dynamic light scattering); format: physicochemical; details: PDI in brackets
Experimental: (§1) Preparation of LNP Systems: PC-Chol LNP systems were prepared by rapidly mixing POPC, cholesterol, lipid-linked prodrug and PEG-DMPE (in molar ratio of 49/39/10/2) dissolved in ethanol with phosphate-buffered saline using a T-junction mixer. Formulations were dialyzed against phosphate-buffered saline to remove residual ethanol and to raise the pH to 7.4. PC-TO and ionizable LNP systems were prepared in the same way except that the lipid compositions for these systems are: POPC, triolein, lipid-linked prodrug and PEG-DSPE (in molar ration of 19/70/10/1), and ionizable lipid, DSPC, cholesterol, lipid-linked prodrug and PEG-DMPE (in molar ration of 40/10/38.5/10/1.5), respectively.
Characterization of LNP: Particle size was determined by dynamic light scattering using a Malvern Zetasizer Nano ZS™ (Malvern, UK) following buffer exchange into phosphate-buffered saline. Number-weighted size and distribution data was used. Lipid concentrations were determined by measuring total cholesterol using the Cholesterol E enzymatic assay kit from Wako Chemicals USA™ (Richmond, Va.). The morphology of LNP formulations containing LD-DEX was analyzed by cryogenic-transmission electron microscopy (cryoTEM) as described previously [Leung et al. (2012)].

[2] = Prodrug incorporation (entrapment) in lipid nanoparticles, UHPLC; format: physicochemical
Experimental: as §1
Quantitation of prodrugs by HPLC: LD-DEX/DTX were quantified by ultra high-pressure liquid chromatography (UHPLC) using a Waters Acquity™ UPLC system equipped with a photodiode array detector (PDA) and evaporative light scattering (ELS) detector; Empower™ data acquisition software version 3.0 was used (Waters™, USA). Separations were performed using a Waters Acquity™ BEH C18 column (1.7 μm, 2.1×100 mm) at a flow rate of 0.5 ml/min, with mobile phases A and B consisting of methanol/10 mM ammonium bicarbonate (80/20% v/v) and methanol/acetonitrile (80/20% v/v), respectively. The mobile phases were delivered at a programmed linear gradient (45%-80% B in 1 min then to 99% B at 2 min) at a column temperature of 55° C. The analyte was measured by PDA (at a wavelength of 239 nm) and ELS detector against calibration standard curves. For the analysis of LD-DEX/DTX breakdown to active compound, linear gradients of 20/80% to 100/0% (acetonitrile/water, v/v) over 7 min were used.

[3] = LD-DTX prodrug in ionizable LNP

| SMILES | Particle size (PDI) PC-Chol LNP ([1]; LD-DEX prodrug in PC-Chol LNP) | Particle size (PDI) [ionizable LNP] ([1]; LD-DEX prodrug in ionizable LNP) | incorporation into LNP (in words) [2] | Particle size (PDI) PC-Chol LNP ([1]; LD-DTX prodrug in PC-Chol LNP) | Particle size (PDI) [ionizable LNP] [1, 3] | % Entrapment PC-Chol LNP ([2]; LD-DTX prodrug in PC-Chol LNP) | % Entrapment [ionizable LNP] [2, 3] |
| --- | --- | --- | --- | --- | --- | --- | --- |
| CCCCC/C=C\C/C=C\CCCCCCCC(=O)O[C@@H](COC(=O)CCC(=O)OCC(=O)[C@@]1(O)[C@H](C)C[C@H]2[C@@H]3CCC4=CC(=O)C=C[C@]4(C)[C@@]3(F)[C@@H](O)C[C@@]21C)[C@H](CN(C)C)OC(=O)CCCCCCC/C=C\C/C=C\CCCCC [LD06-DEX, (2S,3S)-4-(dimethylamino)-2,3-bis(linoleoyloxy)butyl (2-((8S,9R,10S,11S,13S,14S,16R,17R)-9-fluoro-11,17-dihydroxy-10,13,16-trimethyl-3-oxo-6,7,8,9,10,11,12,13,14,15,16,17-dodecahydro-3H-cyclopenta[a]phenanthren-17-yl)-2-oxoethyl)succinate] | 56 (0.03) nm | [48 (0.04)] nm | incorporated more in LNP than LD01-DEX |  |  |  |  |
| CCCCCCCC/C=C\CCCCCCCCOC(=O)CCC(=O)O[C@@H](C(=O)O[C@H]1C[C@@]2(O)[C@@H](OC(=O)c3ccccc3)[C@@H]3[C@]4(OC(C)=O)CO[C@@H]4C[C@H](O)[C@@]3(C)C(=O)[C@H](O)C(=C1C)C2(C)C)[C@@H](NC(=O)OC(C)(C)C)c1ccccc1 [LD18-DTX, (2R,3S)-1-(((2aR,4S,4aS,6R,9S,11S,12S,12aR,12bS)-12b-acetoxy-12-(benzoyloxy)-4,6,11-trihydroxy-4a,8,13,13-tetramethyl-5-oxo-2a,3,4,4a,5,6,9,10,11,12,12a,12b-dodecahydro-1H-7,11-methanocyclodeca[3,4]benzo[1,2-b]oxet-9-yl)oxy)-3-((tert-butoxycarbonyl)amino)-1-oxo-3-phenylpropan-2-yl(Z)-octadec-9-en-1-ylsuccinate] |  |  |  | 80 (0.06) nm | [40 (0.06)] nm | 100% | [100] % |

Reference: US10780174B2, “Lipid-linked prodrugs” (The University of British Columbia, priority 2015, dated 2020)
